Laboratory results taken from article doi:10.1101/2021.03.01.433469.
Where two headings read alike, the source gives them in different places. Results are given in words; binding and its absence hold for the method and conditions named. Binding seen in cells or lysates may run through a third protein. A result given as binding can be weak or reduced; the word gives no strength.

Chains of the proteins cited; added tags and fusions are not shown.
UniProt Q9NFU0: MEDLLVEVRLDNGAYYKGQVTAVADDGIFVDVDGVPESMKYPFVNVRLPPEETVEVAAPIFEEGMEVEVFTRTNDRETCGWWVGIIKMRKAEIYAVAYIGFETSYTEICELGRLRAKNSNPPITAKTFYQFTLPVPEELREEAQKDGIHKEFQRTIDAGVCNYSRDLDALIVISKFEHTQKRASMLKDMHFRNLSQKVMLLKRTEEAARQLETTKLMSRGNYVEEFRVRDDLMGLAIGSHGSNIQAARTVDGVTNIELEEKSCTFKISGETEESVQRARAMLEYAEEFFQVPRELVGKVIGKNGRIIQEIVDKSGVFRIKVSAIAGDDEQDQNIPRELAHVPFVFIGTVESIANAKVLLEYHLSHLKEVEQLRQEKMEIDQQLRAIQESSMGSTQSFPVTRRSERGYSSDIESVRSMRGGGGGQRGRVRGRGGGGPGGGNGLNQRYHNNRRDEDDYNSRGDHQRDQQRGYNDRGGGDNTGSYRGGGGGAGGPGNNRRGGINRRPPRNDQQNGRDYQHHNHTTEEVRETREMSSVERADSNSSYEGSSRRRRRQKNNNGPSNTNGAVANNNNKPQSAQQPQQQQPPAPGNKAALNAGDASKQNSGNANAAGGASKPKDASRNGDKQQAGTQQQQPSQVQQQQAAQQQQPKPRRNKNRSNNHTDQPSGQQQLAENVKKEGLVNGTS

Legend:
[1] = molecular target: Drosophila melanogaster Nab2, FLAG-tagged transgene (UAS-Nab2-FLAG) (Drosophila melanogaster) (UniProt Q9V3H9); assay: co-IP
[2] = molecular target: Drosophila melanogaster Nab2, FLAG-tagged transgene (UAS-Nab2-FLAG) (Drosophila melanogaster) (UniProt Q9V3H9); assay: co-IP; remark: listed apart in the source

Drosophila Fmr1 (from UniProt Q9NFU0 1-684)
binding [1]: binds

B1: Drosophila Ataxin-2 (Atx2) (protein, UniProt Q8SWR8 1-1084)
chain: MNNNSKRKTRPTGGGASGGISRYNSNDNSLRPTNNKAGAGGGNGGAAVRPSAQGVYNNTFFMHSATALVGSVVEVRLRSGNIYEGVFRTFSGNFDIALELPACIKSKNLPEEGKVPKHIIFPADTVVTIVAKDFDSQYATAGAFQTDGAISDKCNGARPDEKELEPWDSGANGDIDIELDSAANGWDPNEMFRKNENTFGVTSTFDDSLASYTVPLDKGDSLEFKEAEAKAEKLAAEIENNPTCRDRLDLENGDEEALFAAVERPSTEQDQRGDRGDRERNDRDREREERDRDRDRDRGNKPRGAGDFQLRETMSSDRYITKQTRSITGPQLSHVGMSSQGSGRDRDTRGDGSMMMQSGGGSGQGGSTQSTAALMLAGGLKGVGPAPSANASADSSSKYSGGSMVKRKTVPQGGKVMRNNVPTGGSNVSVSQGGNGNSVGQNKGGYQPSMGMPSQYSYQGNSQIMHGSSQYRNQSHMGGANKLNGDSNANTNKPLPQRQMRQYQGSQSNSSLNYGGEPQSLGKPVHGSHGGHPGQNSNSPPLQTAGPQQQQQQQQQQQQQQQQQQPPQQQQHQNIQPQGQNTQPARQVRTRDNQMQELRQFGQDFQLAPSNTSPPQQQQQQQQQQQQHQVQQQQQRALQQSASPPQQQQQQQQQQQHVVLHQVPQTHLHQAALSQPHYVPQQQPQQAPLPQQQHVPHHMQQKAQQQQLVETQHQHVQKQHQSQPQVQQPPPQLLQDPSQQPLPIYHTMPPPQTSPVVVTSPVLLEQPPPQPMPVVQQQQTQQLATPKPEVSPAPPSSNTTTPTGIASTPTAGVIASAGSEKTTPAAPTPTSNSATVPTGTAATAGGATGTTPVVKKHVLNPSAKPFTPRGPSTPNPSRPHTPQTPVPMTNIYTTTGGHVPPAANQPIYVMQPQHPFPPQTHPQAGQPPRLRRSNYPPMAASQMHVSASAATGQPLITAGPIPQFIQYGHAPHQQQFQSHTYAPMQMRVYPDQPQQLQFMTQTPQSTTPSPGQPHQQFHPPPQPSPAGGGPQPAFTPPTQAATYQLMCVHPQSLLANHYFPPPTPQHPQQNQQQYQIVMQQHQPQ
binding [2]: binds weakly
